Assay results taken from the supplement of paper PMC10849652.
The list shows a part of the results. Residues, ends and D or L forms follow the SMILES beside them. *: point of attachment. Cbz = O=C(OCc1ccccc1)*

Columns and labels:
Assay in all cases: log2 fold change, soluble protein after heating vs DMSO (PISA); higher = thermal stabilisation; K562 cells, 10 uM, 30 min; active = over 0.2 and 3.5 SD of the protein, either way, in both replicates (recomputed)
[1] = compound: C/C(=N\NC(=O)C1=CC(=CC=C1)S(=O)(=O)N2CCOCC2)/C3=C(C=CC(=C3)Cl)O
Outline: (§1)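 K562 cells at 2×10^6 cells/mL were exposed to 10 μM compound for 30 min, then aliquots were heated for 3 min across 48°C-58°C, pooled, and extracted in PBS containing 0.5% NP-40 at 4°C. The supernatant after 21,000xg for 90 min was taken as soluble protein and measured by TMTpro 16plex LC-MS/MS with channel sums equalised. Thermal stability is reported relative to control samples, with values from duplicates. Fold changes are given on a log2 scale.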

[2] = compound: C1=CC2=C(C=CC(=C2)/C=C\3/C(=O)NC(=NCC4=CC=CS4)S3)N=C1
Outline: as §1

[3] = compound: C1=CC2=NC=CN=C2C=C1/C=C/3\C(=O)NC(=O)S3
Outline: as §1

[4] = compound: C1=CC=C(C=C1)C2=NC(=C(N2)C3=CC=NC=C3)C4=CC(=C(C=C4)Cl)O
Outline: as §1

[5] = compound: C1=CC=C2C(=C1)C3=NNC4=CC=CC(=C43)C2=O
Outline: as §1

IRAK-1-4 Inhibitor I = compound: C1COCCN1CCN2C3=CC=CC=C3N=C2NC(=O)C4=CC(=CC=C4)[N+](=O)[O-] [IRAK-1-4 Inhibitor I]
Outline: as §1

ibrutinib = compound: C=CC(=O)N1CCC[C@@H](n2nc(-c3ccc(Oc4ccccc4)cc3)c3c(N)ncnc32)C1 [ibrutinib]
Outline: as §1

[6] = compound: CC(=O)c1cnc2ccc(-c3cc(Cl)c(O)c(Cl)c3)nc2c1N[C@H]1CC[C@H](CN(C)C)CC1
Outline: as §1

ralimetinib = compound: CC(C)(C)Cn1c(N)nc2ccc(-c3[nH]c(C(C)(C)C)nc3-c3ccc(F)cc3)nc21 [ralimetinib]
Outline: as §1

[7] = compound: CC(C)C[C@@H](C=O)NC(=O)[C@H](CC(C)C)NC(=O)[C@H](CC(C)C)NC(=O)OCc1ccccc1
Outline: as §1

pinometostat = compound: CC(C)N(C[C@H]1O[C@@H](n2cnc3c(N)ncnc32)[C@H](O)[C@@H]1O)[C@H]1C[C@@H](CCc2nc3cc(C(C)(C)C)ccc3[nH]2)C1 [pinometostat]
Outline: as §1

[8] = compound: CC1=C(C(CC(=O)N1)C2=CC=C(C=C2)C(F)(F)F)C(=O)NC3=C(C=C4C(=C3)C=NN4)F
Outline: as §1

[9] = compound: C1=CC(=C(C=C1Cl)C2=NC3=NC=CN=C3C(=N2)NC4=CC=NC=C4)F
Outline: as §1

[10] = compound: C1CCN(C1)C(=O)NC2=CC=CC(=C2)NC3=NC=C(C(=N3)NCCC4=CN=CN4)Br
Outline: as §1

[11] = compound: C1CN(CCC1(CC2=CC=C(C=C2)Cl)N)C3=NC=NC4=C3C=CN4
Outline: as §1

[12] = compound: CC(C)(O)CC(=O)NCCn1ccc2ncnc(Nc3ccc(Oc4cccc(C(F)(F)F)c4)c(Cl)c3)c21
Outline: as §1

[13] = compound: CC1=C(C2=C(C=C1)C(=O)C3=CC=CC=C3N2CCCN)C
Outline: as §1

erlotinib = compound: C#Cc1cccc(Nc2ncnc3cc(OCCOC)c(OCCOC)cc23)c1 [erlotinib]
Outline: as §1

[14] = compound: C1=CC(=CC=C1C2=NC3=C(N2)C=C(C=C3)C(=O)N)OC4=CC=C(C=C4)Cl
Outline: as §1

[15] = compound: CC(C)C1=C2N=C(C=C(N2N=C1)NCC3=CC=CC=C3)NCCCCCCN
Outline: as §1

Measured: log2 fold change

PRR4 (UniProt Q16378)
inactive: [1] -0.099 | [2] 0.138 | [3] -0.092 | [4] -0.004 | [5] -0.102 | IRAK-1-4 Inhibitor I -0.278 | ibrutinib 0.006 | [6] 0.044 | ralimetinib 0.052 | [7] -0.154 | pinometostat 0.244 | [8] -0.118

PRR3 (UniProt P79522)
inactive: [9] -0.334 | [10] -0.042 | [11] -0.136 | IRAK-1-4 Inhibitor I -0.076 | [12] 0.085 | pinometostat -0.002 | [13] -0.192

PRR14L (UniProt Q5THK1)
inactive: [1] -0.168 | [2] 0.16 | [5] -0.091 | [10] 0.166 | [11] -0.023 | [6] -0.104 | [13] 0.008

PPP1R3D (UniProt O95685)
inactive: erlotinib 0.145 | [14] -0.097 | [3] -0.075 | [4] 0.036 | [10] 0.024 | [11] 0.016 | IRAK-1-4 Inhibitor I 0.095 | ibrutinib -0.113 | ralimetinib 0.037 | [15] 0.116 | [7] -0.06 | pinometostat 0.061 | [8] -0.163 | [13] -0.204

PROSER1 (UniProt Q86XN7)
inactive: [4] -0.112 | [10] -0.348 | [11] -0.018 | ralimetinib 0.022 | [7] -0.017 | [13] 0.088

PPP2R2A, A0A590UJJ1
inactive: [1] -0.38 | [2] 0.289 | [5] 0.019 | [6] 0.148

PRNP (UniProt P04156)
inactive: erlotinib -0.049 | [14] 0.098 | [3] 0.109 | ibrutinib -0.047 | [15] 0.117

PPP1R16A (UniProt Q96I34)
inactive: [4] 0.092 | ralimetinib 0.083 | [7] -0.331

PRKD2 (UniProt M0R346)
inactive: [9] -0.066 | [3] -0.032 | ibrutinib -0.096 | [12] -0.273

PPP2R3B (UniProt Q9Y5P8)
inactive: [1] -0.006 | [9] 0.083 | [2] -0.065 | [5] 0.028 | [10] -0.067 | [11] -0.221 | [6] 0.105 | [12] 0.159 | [8] 0.076 | [13] 0.067

Reprinted from the entries so far (five entries):
PRR3 (UniProt P79522)
inactive: [9] -0.334 | [10] -0.042 | [11] -0.136 | IRAK-1-4 Inhibitor I -0.076 | [12] 0.085 | pinometostat -0.002 | [13] -0.192

PRR14L (UniProt Q5THK1)
inactive: [1] -0.168 | [2] 0.16 | [5] -0.091 | [10] 0.166 | [11] -0.023 | [6] -0.104 | [13] 0.008

PPP1R3D (UniProt O95685)
inactive: erlotinib 0.145 | [14] -0.097 | [3] -0.075 | [4] 0.036 | [10] 0.024 | [11] 0.016 | IRAK-1-4 Inhibitor I 0.095 | ibrutinib -0.113 | ralimetinib 0.037 | [15] 0.116 | [7] -0.06 | pinometostat 0.061 | [8] -0.163 | [13] -0.204

PROSER1 (UniProt Q86XN7)
inactive: [4] -0.112 | [10] -0.348 | [11] -0.018 | ralimetinib 0.022 | [7] -0.017 | [13] 0.088

PPP2R2A, A0A590UJJ1
inactive: [1] -0.38 | [2] 0.289 | [5] 0.019 | [6] 0.148

(listing goes on)

PPP1CC (UniProt F8W1A0)
inactive: [3] 0.088 | ibrutinib -0.132

PRR12 (UniProt Q9ULL5)
inactive: erlotinib 0.072 | [14] 0.114 | [15] -0.261

PPP1R13L (UniProt Q8WUF5)
inactive: [9] -0.136 | [3] 0.083 | [10] -0.043 | [11] 0.126 | ibrutinib 0.191 | [12] -0.112 | [8] 0.021 | [13] -0.063

PRPF39 (UniProt Q86UA1)
inactive: [10] -0.006 | [11] -0.044 | [13] -0.258

PRELID2 (UniProt Q8N945)
inactive: IRAK-1-4 Inhibitor I -0.004 | pinometostat 0.054

PRR16 (UniProt Q569H4)
inactive: erlotinib -0.182 | [14] 0.02 | [15] -0.069

PRDM2 (UniProt Q13029)
inactive: [1] -0.09 | [9] -0.109 | [2] 0.058 | [4] -0.063 | [5] -0.168 | [10] -0.003 | [11] -0.116 | IRAK-1-4 Inhibitor I 0.084 | [6] -0.037 | ralimetinib 0.108 | [12] -0.011 | [7] 0.076 | pinometostat 0.074 | [8] -0.158 | [13] -0.177

PPP2R1B (UniProt H0YDG7)
inactive: [3] -0.428 | [10] 0.273 | [11] -0.013 | ibrutinib 0.118 | [8] 0.046 | [13] 0.027

PRC1 (UniProt O43663)
inactive: [1] 0.107 | [2] -0.159 | [5] -0.116 | [10] 0.132 | [11] -0.233 | [6] -0.189 | [13] -0.109

PRKRA (UniProt O75569)
inactive: [1] -0.076 | [9] -0.307 | [2] 0.012 | [3] 0.033 | [4] -0.134 | [5] -0.015 | [10] -0.037 | [11] -0.081 | IRAK-1-4 Inhibitor I -0.205 | ibrutinib 0.07 | [6] 0.143 | ralimetinib 0.207 | [12] 0.188 | [7] 0.111 | pinometostat 0.308 | [8] 0.051 | [13] -0.399

PPTC7 (UniProt Q8NI37)
inactive: [9] -0.026 | IRAK-1-4 Inhibitor I -0.051 | [12] -0.102 | pinometostat 0.09

PPP2CB (UniProt E5RHC1)
inactive: erlotinib 0.027 | [14] -0.035 | [15] 0.14

PRKX (UniProt P51817)
inactive: erlotinib 0.169 | [14] 0.035 | [3] 0 | ibrutinib -0.005 | [15] -0.274

PROSER3, A0A2R8Y8D9
inactive: [1] -0.071 | [9] 0.216 | [2] -0.22 | [5] 0.065 | [10] 0.098 | [11] 0.141 | [6] -0.022 | [12] 0.117 | [13] -0.026

PPP1R9A isoform 3 (UniProt Q9ULJ8)
inactive: [9] -0.103 | [3] 0.098 | [4] 0.137 | IRAK-1-4 Inhibitor I -0.145 | ibrutinib -0.136 | ralimetinib -0.34 | [12] 0.08 | [7] 0.055 | pinometostat 0.048 | [8] -0.002

PPP1R12B isoform 6 (UniProt O60237)
active: [8] -0.346
inactive: erlotinib 0.226 | [14] 0.001 | [3] -0.081 | ibrutinib 0.075 | [15] -0.074

PPP2R5C isoform 2 (UniProt Q13362)
inactive: erlotinib -0.012 | [14] -0.02 | [3] -0.011 | [4] -0.039 | IRAK-1-4 Inhibitor I -0.036 | ibrutinib -0.038 | ralimetinib 0.026 | [15] -0.146 | [7] -0.095 | pinometostat -0.017

PRRG1 (UniProt O14668)
inactive: [4] 0.041 | IRAK-1-4 Inhibitor I 0.009 | ralimetinib -0.15 | [7] 0.046 | pinometostat 0.004

PPP2R3C (UniProt Q969Q6)
inactive: [10] 0.078 | [11] 0.047 | [13] 0.064

PRH1 (UniProt P02810)
inactive: [8] -0.062
